Binding data for one substance are collected here from paper PMC5372524, “Structural Basis of Native CXCL7 Monomer Binding to CXCR2 Receptor N-Domain and Glycosaminoglycan Heparin” (International Journal of Molecular Sciences, 2017).

Chains of the proteins cited; added tags and fusions are not shown. Residues count along the entry.
UniProt P25025, residues 1-43: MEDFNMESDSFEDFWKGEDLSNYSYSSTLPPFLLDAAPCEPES

These are yes or no findings as the source states them, for the method shown. Some binding calls cover weakened binding; strength is not graded here.

The experiment concerns the target T1, CXCL7 (NAP-2, neutrophil-activating peptide 2), wild type (UniProt P02775).
T1 sequence: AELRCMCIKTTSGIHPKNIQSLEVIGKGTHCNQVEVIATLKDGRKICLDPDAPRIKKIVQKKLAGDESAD
Put plainly: NMR titration; unlabelled CXCR2 N-domain (320 uM) titrated to 77 uM 15N WT CXCL7; series of 1H-15N HSQC spectra; 50 mM phosphate buffer, pH 6.0, 35 °C; final molar ratio CXCL7:CXCR2 N-domain 1:3.5; both purified.

For “CXCR2 N-terminal domain peptide (residues 1 to 43) (from UniProt P25025 1-43) (domain or fragment)”, the binding result was “binds”.
